The other results are listed elsewhere or left out. These are further read-outs of the screen, such as a control signal, another cell line or another target. No call is given for them. The list favours compounds with an active or inconclusive main result. The note in brackets gives the kind of curve behind each potency; many fits are weak.

The nature of this assay: qHTS Assay to Find Inhibitors of Chronic Active B-Cell Receptor Signaling. The conditions noted are these: ABC-DLBCL IkBa-CBG/CBR reporter, luminescence ratio (green luciferase fused to IkBa over red control in TMD8 lymphoma cells), 4 h. The method in brief: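 Doxycycline induced both beetle luciferases in TMD8 lymphoma cells; IKK-driven degradation limits the IkappaBalpha-fused green signal, while red luminescence normalises for cell number and nonspecific effects. Compounds tested up to 46 uM, 4 hrs.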

Where [1] appears, read: measured here: CBR red luminescence, cell number.
Setting [2] is: measured here: IkBa-CBG green luminescence.

In general, AC50 refers to the concentration giving half of the maximal activity seen. With `CSCCC(NC(=O)COc1ccccc1)C(=O)N1CCN(c2ccccc2)CC1` (stereo not drawn), the AC50 under setting [1] is 32.6 µM [falling, single point]. On the same count and under the same terms, the figure for `O=C(CC(=O)c1cc(Cl)ccc1O)c1ccccc1` is 2.59 µM [rising, partial curve, poor fit]; for `Cc1ccc(/C=C/C(=O)CCC(=O)O)cc1` it is 35.5 µM [falling, single point]; for `Cc1cc(C)cc(C(=O)Nc2cccnc2Cl)c1` it is 10 µM [rising, partial curve, poor fit]. On the same count and under the same terms, the value for `O=C(NC(=S)Nc1ccc2[nH]ncc2c1)c1ccccc1` was 13 µM [falling, partial curve, poor fit]. Same read-out and setting: the figure for `COc1cc(NC(=O)c2c(F)c(F)c(F)c(F)c2F)c(OC)cc1Cl` is 23.1 µM [falling, single point]. Turning to `CCOC(=O)N1CCN(C(=O)C2CCN(S(=O)(=O)c3ccc(Cl)cc3)CC2)CC1`, the AC50 under setting [1] was 10.3 µM [falling, partial curve, poor fit]. Take `Cn1c(=O)[nH]c(=O)c2c1nc(N1CCN(CCO)CC1)n2Cc1ccccc1Cl`: the half-maximal activity concentration (AC50) under setting [2] is 15.8 µM [falling, partial curve, poor fit]. `COc1cc(C(=O)Nc2nc3ccc(S(C)(=O)=O)cc3s2)cc(OC)c1C`: the AC50 under setting [1] is 0.562 µM [falling, full curve, poor fit]. Same read-out and setting: the figure for `CCn1c(/C=C/c2ccccc2)nc2ccccc2c1=O` is 25.1 µM [falling, single point].

Consider `CCOc1ccc2c(c1)OC(c1ccc(OC)cc1)(C(F)(F)F)NC2=O` (stereo not drawn), for which the AC50 under setting [1] is 23.1 µM [rising, single point] and the AC50 under setting [2] is 14.6 µM [falling, partial curve]. For the compound `CCOc1ccc(S(=O)(=O)N(CC(N)=O)c2ccc(C)cc2)cc1`, the AC50 under setting [1] is 29.1 µM [rising, single point].

On to `O=C(NCCCc1nc2ccccc2[nH]1)c1ccc(F)cc1`, for which the AC50 under setting [1] is 5.01 µM [falling, full curve, poor fit]. The same measure, in the same setting: the figure for `COc1cccc(NC(=O)NCc2ccccc2F)c1` is 11.2 µM [falling, partial curve]; for `CCC(=O)c1c(NC)cc(C)oc1=O` it is 25.1 µM [falling, single point]; for `Cc1cc(C)cc(NC(=O)CSc2nnc(-c3ccccc3)n2N)c1` it is 35.5 µM [falling, single point]. Same read-out and setting: the figure for `COc1cc(OC)c(N(C)C(=O)CCNC(=O)Cn2cnc3ccccc3c2=O)cc1Cl` is 0.164 µM [rising, full curve, poor fit].

With `CC(=O)Nc1ccc(NC(=O)C(C)O/N=C/c2cccc([N+](=O)[O-])c2)cc1` (stereo not drawn), the AC50 under setting [1] is 2.06 µM [falling, partial curve, poor fit].

Take `CCO[C@H]1OC(C(=O)N2CCCCCCC2)=C[C@@H](c2ccc(C(F)(F)F)cc2)[C@@H]1CCCO`: the AC50 under setting [1] was 1.78 µM [rising, partial curve, poor fit]. Same read-out and setting: the value for `CCOc1ccc(OCCSc2nc3ccccc3n2CC(=O)O)cc1` was 12.6 µM [falling, partial curve, poor fit]. As for `CCOC(=O)C1=C(C)N=C2SCCC(=O)N2C1c1ccc(C(=O)OC)cc1` (stereo not drawn), the AC50 under setting [1] was 8.2 µM [rising, partial curve].

Regarding `O=C(NC(NC(=S)Nc1c(Cl)cc(Cl)cc1Cl)C(Cl)(Cl)Cl)OCc1ccccc1` (stereo not drawn), the AC50 under setting [1] was 29.1 µM [falling, single point]. Still for that read-out and setting: the value for `CCOc1cc(C(=S)N2CCCC2)ccc1OCc1ccccc1` was 11.2 µM [falling, partial curve, poor fit]; that for `O=c1[nH]c2cc(NCCO)c([N+](=O)[O-])cc2[nH]1` was 14.1 µM [rising, partial curve, poor fit]; that for `COc1ccc(OC)c(-n2c(=S)[nH]c3cc(C(=O)N(C)Cc4ccccc4)ccc3c2=O)c1` was 35.5 µM [falling, single point]. In the case of `Oc1ccccc1C1=Nc2nc3ccccc3n2C(c2ccccc2)C1` (stereo not drawn), under setting [1], the AC50 is 18.4 µM [falling, single point].

In the case of `S=C1SCN(Cc2ccccc2)CN1Cc1ccccc1`, the AC50 runs as follows: under setting [1], 15.8 µM [falling, partial curve]; under setting [2], 17.8 µM [falling, partial curve, poor fit]. As for `Cc1[nH]c2ccc(C(=O)OC(C)C(=O)N(C)c3ccccc3)cc2c1C` (stereo not drawn), the AC50 under setting [1] was 29.1 µM [falling, single point].

Turning to `c1ccc(Cc2nnc3sc(-c4cccs4)nn23)cc1`, the AC50 under setting [1] is 1.46 µM [falling, full curve]. The same measure, in the same setting: the figure for `O=C(Nc1cccc(Cl)c1)O/N=C\c1ccncc1` is 17.8 µM [rising, partial curve, poor fit]; for `Fc1ccc(CNc2nc(-c3cccnc3)nc3ccccc23)cc1` it is 0.631 µM [rising, full curve, poor fit]. Still for that read-out and setting: the value for `O=C(NCCc1ccccc1)C1CCCN(C(=O)NC2CCCCC2)C1` (stereo not drawn) was 6.31 µM [rising, single point]; that for `O=C(Cc1ccccc1)N/N=C/c1ccc(Cl)cc1Cl` was 2.24 µM [rising, full curve, poor fit]; that for `COc1ccc(/C=C/c2cc(-c3ccc(C)cc3)o[n+]2C)cc1` was 7.94 µM [falling, partial curve, poor fit]. Same read-out and setting: the figure for `Cc1nnc(SCc2ccc3c(c2)OCO3)s1` is 2.91 µM [rising, full curve, poor fit]. Take `CCCOCCOC(=O)c1[nH]c2c(c1C)C(=O)CC(c1cc(OC)ccc1OC)C2` (stereo not drawn): the AC50 is 9.2 µM [rising, partial curve] under setting [1] and 2.91 µM [falling, full curve] under setting [2]. Consider `COc1ccc2nc(-c3ccc(Cl)cc3)cc(C(=O)O)c2c1`, for which the AC50 under setting [1] was 12.6 µM [falling, partial curve, poor fit]. The same measure, in the same setting: the value for `COc1ccc(OC)c(C2=NOC(C(=O)NCC3CCCO3)C2)c1` (stereo not drawn) was 5.62 µM [rising, single point].

As to `CC(C)C(=O)COc1c2occc2cc2ccc(=O)oc12`, the AC50 under setting [1] is 29.1 µM [rising, single point].

In the case of `N#Cc1c(N)nc(N)nc1Nc1ccc(Br)cc1`, the AC50 under setting [1] is 0.501 µM [rising, partial curve, poor fit]. On the same count and under the same terms, the value for `C/C(=N/NC(=O)CNC(=O)COc1ccccc1)c1ccc(Cl)cc1` was 15.8 µM [rising, partial curve, poor fit]. Still for that read-out and setting: the figure for `O=C(O)c1cc(N=Cc2c(O)c3ccccc3oc2=O)ccc1O` is 5.62 µM [falling, full curve]; for `O=C(NNC(=O)C1C2C=CC(C2)C1C(=O)O)c1ccccc1` (stereo not drawn) it is 4.47 µM [falling, partial curve, poor fit]. Still for that read-out and setting: the value for `COc1ccc(C(=O)Nc2cc(Cl)ccc2N2CCOCC2)cc1S(=O)(=O)N1CCOCC1` was 2.59 µM [falling, full curve, poor fit]. As for `CCC(=O)Nc1ccc(C(=O)COC(=O)Cc2ccsc2)cc1`, under setting [1], the AC50 is 0.366 µM [rising, full curve, poor fit]. The same measure, in the same setting: the value for `O=C(Nc1ccc(Nc2ccccc2)cc1)c1cccc(F)c1` was 35.5 µM [falling, partial curve, poor fit]. For the compound `CCN(CC)c1ccc(NC(=O)COC(=O)c2ccc3ccccc3n2)cc1`, the AC50 under setting [1] is 0.00461 µM [rising, full curve, poor fit]. Same read-out and setting: the value for `O=C(CNC(=O)c1cc2c(n(-c3ccccc3)c1=O)CCCC2=O)c1ccccc1` was 35.5 µM [rising, single point]. Same read-out and setting: the value for `Cc1nn(C)c(C(=O)NNC(=S)NCC(C)C)c1Cl` was 10.3 µM [rising, partial curve, poor fit]; that for `O=C(O)c1ccccc1NS(=O)(=O)c1cccc2cccnc12` was 2.31 µM [falling, partial curve]. Same read-out and setting: the figure for `CCCCCOC(=O)c1ccc(OC(=O)c2cncc(Br)c2)cc1` is 3.16 µM [rising, full curve]; for `COc1cc(NS(=O)(=O)c2ccc(NC(=O)/C(=C/c3ccccc3Cl)NC(=O)c3ccccc3)cc2)nc(OC)n1` it is 11.6 µM [rising, partial curve, poor fit]. With `CCOC(=O)C(C)c1ccc2cc(OC)ccc2c1` (stereo not drawn), the AC50 under setting [1] is 35.5 µM [rising, single point].

As for `C/C(=N\NC(=O)c1ccc2c(c1)OCO2)c1ccco1`, under setting [1], the AC50 is 4.47 µM [falling, partial curve]. The same measure, in the same setting: the value for `CCOc1ccc2nc(SCc3ccccc3C#N)sc2c1` was 22.4 µM [rising, partial curve, poor fit].

Consider `c1ccc(-c2nc(NCC3CCCO3)c3oc4ccccc4c3n2)cc1` (stereo not drawn), for which the AC50 under setting [1] is 8.2 µM [falling, partial curve, poor fit].

`Fc1ccc(NC(=S)NNc2ncc(C(F)(F)F)cc2Cl)c(F)c1`: the AC50 under setting [1] is 35.5 µM [falling, single point].

For the compound `COc1ccc(CNC(=O)c2cc(C(C)=O)c[nH]2)cc1`, the AC50 under setting [1] was 20 µM [rising, partial curve, poor fit]. On the same count and under the same terms, the figure for `COc1ccccc1NCC(O)COc1ccc(C(C)(C)C)cc1` (stereo not drawn) is 22.4 µM [falling, single point]; for `O=C(CCC(=O)Nc1ccccc1Cl)NN=C1CCCC1` it is 0.631 µM [falling, partial curve, poor fit]. Same read-out and setting: the figure for `COc1ccc(C)cc1NC(=O)c1cccc(C(=O)Nc2cc(C)ccc2OC)c1` is 11.2 µM [falling, partial curve, poor fit]. On to `COc1cc(/C=N/N(C)c2ccccc2)ccc1O`, for which the AC50 is 0.731 µM [rising, full curve] under setting [1] and 18.4 µM [falling, partial curve] under setting [2]. In the case of `N#CC(C#N)=C1C=CC=CN1/C(=C\c1ccccc1Cl)C(=O)c1ccccc1`, the AC50 under setting [1] was 29.1 µM [falling, single point]. Same read-out and setting: the value for `Cc1ccc(S(=O)(=O)c2nc(NN(C)C)sc2Cl)cc1` was 17.8 µM [falling, single point].

Source of the values: PubChem BioAssay AID493014 (National Center for Advancing Translational Sciences (NCATS), 2011).
